This is one part of the list.
Legend:
Experiment in all cases: log2 fold change, soluble protein after heating vs DMSO (PISA); higher = thermal stabilisation; K562 lysate, 10 uM; active = over 0.2 and 3.5 SD of the protein, either way, in both replicates (recomputed)
[1] = compound: CCCS(=O)(=O)Nc1ccc(F)c(C(=O)c2c[nH]c3ncc(-c4ccc(Cl)cc4)cc23)c1F [vemurafenib]
Method in brief: (§1)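 Soluble protein was defined as the supernatant remaining after 21,000xg for 90 min, following pooling of heated aliquots and adjustment to 0.5% NP-40 at 4°C. Before that, crude K562 extract at 1 mg/mL protein in PBS pH 7.4 with 1 mM MgCl2 was treated with 10 μM compound for 30 min and heated for 3 min across 48°C-58°C. Quantification used TMTpro 16plex LC-MS/MS with channel sums equalised, and values are log-two fold changes in thermal stability relative to solvent controls from duplicates.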

By UniProt entry, the sequences of proteins in these tests, tags left out. Where a name states a change or a piece, a line headed by the entry shows the natural chain unless it says otherwise.
UniProt O75385: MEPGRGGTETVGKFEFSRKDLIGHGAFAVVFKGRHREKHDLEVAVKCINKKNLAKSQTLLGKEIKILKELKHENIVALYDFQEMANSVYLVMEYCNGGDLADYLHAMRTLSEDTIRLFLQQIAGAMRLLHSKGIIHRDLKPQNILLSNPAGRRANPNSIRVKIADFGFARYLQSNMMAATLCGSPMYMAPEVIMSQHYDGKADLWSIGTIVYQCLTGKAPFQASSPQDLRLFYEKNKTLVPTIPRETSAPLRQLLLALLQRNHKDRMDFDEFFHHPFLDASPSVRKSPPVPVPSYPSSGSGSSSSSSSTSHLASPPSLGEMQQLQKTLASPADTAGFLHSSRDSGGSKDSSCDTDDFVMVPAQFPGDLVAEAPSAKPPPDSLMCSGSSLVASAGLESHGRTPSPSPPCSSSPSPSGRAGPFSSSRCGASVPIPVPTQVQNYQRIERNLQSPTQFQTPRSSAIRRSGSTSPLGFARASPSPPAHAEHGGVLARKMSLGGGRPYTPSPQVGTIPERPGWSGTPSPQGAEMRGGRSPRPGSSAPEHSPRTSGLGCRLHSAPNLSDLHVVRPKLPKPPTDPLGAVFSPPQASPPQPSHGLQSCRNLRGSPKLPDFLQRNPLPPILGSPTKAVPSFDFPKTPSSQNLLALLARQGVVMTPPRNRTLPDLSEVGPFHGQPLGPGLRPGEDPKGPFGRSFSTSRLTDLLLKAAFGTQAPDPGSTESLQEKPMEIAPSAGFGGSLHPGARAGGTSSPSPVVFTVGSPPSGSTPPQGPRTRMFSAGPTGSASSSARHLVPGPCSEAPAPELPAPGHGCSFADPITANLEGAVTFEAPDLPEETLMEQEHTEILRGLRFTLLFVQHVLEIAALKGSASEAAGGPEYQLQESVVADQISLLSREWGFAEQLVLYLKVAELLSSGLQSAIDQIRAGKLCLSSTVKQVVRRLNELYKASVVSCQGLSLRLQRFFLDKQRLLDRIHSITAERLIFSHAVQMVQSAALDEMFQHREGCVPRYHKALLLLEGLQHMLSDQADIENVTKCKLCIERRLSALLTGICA
UniProt Q96T88: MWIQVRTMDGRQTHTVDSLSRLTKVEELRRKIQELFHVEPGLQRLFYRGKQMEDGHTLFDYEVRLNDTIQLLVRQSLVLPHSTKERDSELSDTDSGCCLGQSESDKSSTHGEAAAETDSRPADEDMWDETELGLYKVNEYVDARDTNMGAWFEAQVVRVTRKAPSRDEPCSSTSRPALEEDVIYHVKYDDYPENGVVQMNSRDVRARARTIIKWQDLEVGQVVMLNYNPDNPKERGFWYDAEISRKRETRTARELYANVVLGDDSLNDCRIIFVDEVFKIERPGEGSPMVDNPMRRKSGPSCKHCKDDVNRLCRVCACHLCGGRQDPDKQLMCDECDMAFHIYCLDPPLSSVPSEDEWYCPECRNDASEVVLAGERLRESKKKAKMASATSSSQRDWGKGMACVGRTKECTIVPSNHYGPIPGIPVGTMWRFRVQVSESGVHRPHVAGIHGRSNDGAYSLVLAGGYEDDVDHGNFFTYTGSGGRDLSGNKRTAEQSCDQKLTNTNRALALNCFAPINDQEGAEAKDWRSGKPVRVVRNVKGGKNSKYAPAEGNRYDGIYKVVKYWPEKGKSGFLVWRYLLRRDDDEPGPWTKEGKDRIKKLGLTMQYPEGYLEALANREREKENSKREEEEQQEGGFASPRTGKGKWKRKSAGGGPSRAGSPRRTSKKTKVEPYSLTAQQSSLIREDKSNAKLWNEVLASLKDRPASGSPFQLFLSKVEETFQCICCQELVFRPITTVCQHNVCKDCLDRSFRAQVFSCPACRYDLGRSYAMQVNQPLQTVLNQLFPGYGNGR
UniProt O94763, whole entry, looked up: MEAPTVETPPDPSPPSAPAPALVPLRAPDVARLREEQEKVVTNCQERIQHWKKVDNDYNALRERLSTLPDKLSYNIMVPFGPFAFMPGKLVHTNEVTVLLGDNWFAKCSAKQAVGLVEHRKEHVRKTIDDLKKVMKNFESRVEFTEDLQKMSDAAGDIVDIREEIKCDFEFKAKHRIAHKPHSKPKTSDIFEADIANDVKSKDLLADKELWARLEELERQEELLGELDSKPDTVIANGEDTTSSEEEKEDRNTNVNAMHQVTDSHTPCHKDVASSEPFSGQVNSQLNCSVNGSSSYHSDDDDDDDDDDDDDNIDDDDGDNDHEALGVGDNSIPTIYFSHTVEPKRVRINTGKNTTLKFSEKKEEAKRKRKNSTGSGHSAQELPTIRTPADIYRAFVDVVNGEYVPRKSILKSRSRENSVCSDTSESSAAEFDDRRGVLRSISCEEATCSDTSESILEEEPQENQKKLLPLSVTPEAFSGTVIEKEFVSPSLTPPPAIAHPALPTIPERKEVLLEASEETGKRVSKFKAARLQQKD
UniProt P13051, whole entry, looked up: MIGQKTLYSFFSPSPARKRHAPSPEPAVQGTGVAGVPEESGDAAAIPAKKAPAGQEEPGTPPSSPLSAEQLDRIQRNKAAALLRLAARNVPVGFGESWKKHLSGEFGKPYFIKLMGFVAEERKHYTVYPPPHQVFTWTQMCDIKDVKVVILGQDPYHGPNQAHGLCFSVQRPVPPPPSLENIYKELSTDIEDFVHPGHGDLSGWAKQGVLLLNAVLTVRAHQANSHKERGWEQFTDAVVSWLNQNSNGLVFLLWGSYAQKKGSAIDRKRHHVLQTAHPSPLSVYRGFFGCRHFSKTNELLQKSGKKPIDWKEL
UniProt P46939: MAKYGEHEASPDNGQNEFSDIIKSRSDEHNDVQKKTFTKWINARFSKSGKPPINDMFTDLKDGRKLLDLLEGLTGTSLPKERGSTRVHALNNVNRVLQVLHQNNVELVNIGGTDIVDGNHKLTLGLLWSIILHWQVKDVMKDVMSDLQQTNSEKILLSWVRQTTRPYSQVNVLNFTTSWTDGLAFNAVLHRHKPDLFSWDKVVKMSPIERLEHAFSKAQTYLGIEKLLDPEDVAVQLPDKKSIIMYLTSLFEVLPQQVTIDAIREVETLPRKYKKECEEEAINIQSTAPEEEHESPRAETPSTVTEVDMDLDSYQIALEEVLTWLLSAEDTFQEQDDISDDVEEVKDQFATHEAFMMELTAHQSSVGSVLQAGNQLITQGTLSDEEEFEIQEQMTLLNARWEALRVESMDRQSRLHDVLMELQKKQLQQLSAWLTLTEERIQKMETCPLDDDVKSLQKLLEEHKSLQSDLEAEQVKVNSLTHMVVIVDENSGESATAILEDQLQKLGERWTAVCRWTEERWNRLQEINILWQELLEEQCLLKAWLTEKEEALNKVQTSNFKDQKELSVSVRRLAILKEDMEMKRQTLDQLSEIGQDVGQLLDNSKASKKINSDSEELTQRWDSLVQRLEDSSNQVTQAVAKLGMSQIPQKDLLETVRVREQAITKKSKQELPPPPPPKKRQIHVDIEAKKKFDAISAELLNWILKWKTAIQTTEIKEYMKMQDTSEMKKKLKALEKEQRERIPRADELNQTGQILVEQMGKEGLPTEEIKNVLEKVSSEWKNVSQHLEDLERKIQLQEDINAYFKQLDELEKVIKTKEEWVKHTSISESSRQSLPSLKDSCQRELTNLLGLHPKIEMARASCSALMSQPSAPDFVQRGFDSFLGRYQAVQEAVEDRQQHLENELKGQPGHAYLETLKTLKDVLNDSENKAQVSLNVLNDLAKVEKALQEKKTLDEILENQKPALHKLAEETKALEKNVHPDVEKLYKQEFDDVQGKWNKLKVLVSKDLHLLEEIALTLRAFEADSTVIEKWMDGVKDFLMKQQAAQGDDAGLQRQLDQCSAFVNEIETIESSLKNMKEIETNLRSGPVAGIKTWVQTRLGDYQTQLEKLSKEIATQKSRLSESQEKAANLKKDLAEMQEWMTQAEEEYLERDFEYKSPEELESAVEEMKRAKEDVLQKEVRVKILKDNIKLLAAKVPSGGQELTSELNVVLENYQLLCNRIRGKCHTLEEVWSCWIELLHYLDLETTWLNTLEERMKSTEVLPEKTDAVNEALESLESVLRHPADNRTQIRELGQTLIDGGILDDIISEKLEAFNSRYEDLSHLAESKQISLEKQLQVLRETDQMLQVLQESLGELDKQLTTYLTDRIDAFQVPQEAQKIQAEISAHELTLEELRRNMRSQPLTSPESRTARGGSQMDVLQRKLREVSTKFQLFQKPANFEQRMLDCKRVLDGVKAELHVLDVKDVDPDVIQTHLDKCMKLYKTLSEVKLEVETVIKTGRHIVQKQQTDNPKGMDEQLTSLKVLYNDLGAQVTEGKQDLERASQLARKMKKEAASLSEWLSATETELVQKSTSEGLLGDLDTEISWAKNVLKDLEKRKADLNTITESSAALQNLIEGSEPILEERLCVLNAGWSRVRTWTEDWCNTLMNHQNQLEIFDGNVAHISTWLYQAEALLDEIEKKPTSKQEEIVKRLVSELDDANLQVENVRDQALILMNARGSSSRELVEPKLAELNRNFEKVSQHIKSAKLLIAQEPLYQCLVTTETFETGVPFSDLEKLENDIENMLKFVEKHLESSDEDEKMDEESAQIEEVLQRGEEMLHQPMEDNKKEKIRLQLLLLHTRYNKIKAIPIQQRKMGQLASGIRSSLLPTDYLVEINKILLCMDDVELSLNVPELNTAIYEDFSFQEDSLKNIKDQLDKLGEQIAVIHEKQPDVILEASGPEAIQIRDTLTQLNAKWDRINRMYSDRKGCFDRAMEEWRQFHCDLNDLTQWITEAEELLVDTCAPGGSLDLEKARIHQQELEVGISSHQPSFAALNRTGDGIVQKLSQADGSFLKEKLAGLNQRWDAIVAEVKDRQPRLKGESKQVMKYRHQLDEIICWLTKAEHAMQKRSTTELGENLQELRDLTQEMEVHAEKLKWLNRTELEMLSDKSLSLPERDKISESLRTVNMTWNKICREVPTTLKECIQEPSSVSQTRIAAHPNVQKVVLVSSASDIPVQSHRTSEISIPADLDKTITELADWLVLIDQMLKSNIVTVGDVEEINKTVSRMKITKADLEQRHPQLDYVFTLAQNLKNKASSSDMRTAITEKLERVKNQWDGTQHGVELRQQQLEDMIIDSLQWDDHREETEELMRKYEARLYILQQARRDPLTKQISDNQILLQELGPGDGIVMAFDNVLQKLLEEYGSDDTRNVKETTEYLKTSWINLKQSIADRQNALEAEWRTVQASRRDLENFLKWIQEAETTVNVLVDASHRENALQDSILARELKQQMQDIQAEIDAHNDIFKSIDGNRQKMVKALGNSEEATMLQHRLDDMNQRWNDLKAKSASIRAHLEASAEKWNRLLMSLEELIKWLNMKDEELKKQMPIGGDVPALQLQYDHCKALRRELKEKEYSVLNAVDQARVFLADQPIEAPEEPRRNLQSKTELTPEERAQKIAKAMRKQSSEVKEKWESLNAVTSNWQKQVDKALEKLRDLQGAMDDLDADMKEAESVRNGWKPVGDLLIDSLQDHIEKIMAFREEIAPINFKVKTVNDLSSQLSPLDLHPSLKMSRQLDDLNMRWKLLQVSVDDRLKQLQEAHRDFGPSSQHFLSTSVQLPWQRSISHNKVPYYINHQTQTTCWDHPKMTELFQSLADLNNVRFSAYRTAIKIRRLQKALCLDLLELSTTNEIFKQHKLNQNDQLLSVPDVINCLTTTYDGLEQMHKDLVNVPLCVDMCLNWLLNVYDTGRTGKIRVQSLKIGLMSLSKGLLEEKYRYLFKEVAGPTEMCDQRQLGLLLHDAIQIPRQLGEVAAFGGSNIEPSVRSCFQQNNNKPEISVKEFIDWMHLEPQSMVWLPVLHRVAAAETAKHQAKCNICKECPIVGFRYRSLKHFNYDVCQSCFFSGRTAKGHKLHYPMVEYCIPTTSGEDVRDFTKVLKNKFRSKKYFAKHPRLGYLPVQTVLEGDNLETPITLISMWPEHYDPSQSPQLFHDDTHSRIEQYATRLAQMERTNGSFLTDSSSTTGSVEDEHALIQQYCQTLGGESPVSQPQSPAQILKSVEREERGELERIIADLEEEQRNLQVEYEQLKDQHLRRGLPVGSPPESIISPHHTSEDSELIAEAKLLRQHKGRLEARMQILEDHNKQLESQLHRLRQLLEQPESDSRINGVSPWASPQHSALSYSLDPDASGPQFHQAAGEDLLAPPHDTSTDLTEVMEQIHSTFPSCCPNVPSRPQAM
UniProt P55851: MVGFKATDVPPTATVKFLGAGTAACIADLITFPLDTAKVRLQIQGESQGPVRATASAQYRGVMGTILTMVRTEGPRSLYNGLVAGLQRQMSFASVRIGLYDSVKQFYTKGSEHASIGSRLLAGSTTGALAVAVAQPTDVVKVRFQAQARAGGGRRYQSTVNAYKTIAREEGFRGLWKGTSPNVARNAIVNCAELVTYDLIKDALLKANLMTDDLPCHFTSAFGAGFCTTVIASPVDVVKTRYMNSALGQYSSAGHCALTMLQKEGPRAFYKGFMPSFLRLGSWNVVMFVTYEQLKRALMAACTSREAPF

[2] = compound: CCCS(=O)(=O)Nc1ccc(F)c(C(=O)c2c[nH]c3ncc(Cl)cc23)c1F
Method in brief: as §1

[3] = compound: CC[C@@H]1C(=O)N(C)c2cnc(Nc3ccc(C(=O)NC4CCN(C)CC4)cc3OC)nc2N1C1CCCC1
Method in brief: as §1

[4] = compound: CC[C@@H]1C(=O)N(C)c2cnc(Nc3ccc(C(=O)N[C@H]4CC[C@H](N5CCN(CC6CC6)CC5)CC4)cc3OC)nc2N1C(C)C [volasertib]
Method in brief: as §1

[5] = compound: CCn1c(C(=O)N(C2CC2)C2CC2)cc2c3c(ncn3C)c(Nc3cc(C)n(C)n3)nc21
Method in brief: as §1

[6] = compound: CCn1cc(-c2ccnc3[nH]c(-c4cccc(CN(C)C)c4)cc23)c(-c2ccc(NC(=O)N(C)C)cc2)n1
Method in brief: as §1

[7] = compound: CN1CCC(CNc2ccc3ncc(-c4cccc(OC(F)(F)F)c4)n3n2)CC1
Method in brief: as §1

[8] = compound: CN1CCN(CCOc2cc(OC3CCOCC3)c3c(Nc4c(Cl)ccc5c4OCO5)ncnc3c2)CC1 [saracatinib]
Method in brief: as §1

[9] = compound: CN1CCN(c2nc(C3=C(c4c[nH]c5ccccc45)C(=O)NC3=O)c3ccccc3n2)CC1 [sotrastaurin]
Method in brief: as §1

[10] = compound: CN1CC[C@H](c2c(O)cc(O)c3c(=O)cc(-c4ccccc4Cl)oc23)[C@H](O)C1 [alvocidib]
Method in brief: as §1

[11] = compound: CN1CCc2c(c3ccccc3n2Cc2ccc(C(=O)NO)cc2)C1 [Tubastatin A]
Method in brief: as §1

[12] = compound: CNC(=O)C1=CC=CC=C1NC2=NC(=NC=C2Cl)NC3=C(C=C(C=C3)N4CCOCC4)OC
Method in brief: as §1

[13] = compound: CNC(=O)c1ccc(Nc2ncc(C(F)(F)F)c(NCc3nccnc3N(C)S(C)(=O)=O)n2)cc1 [defactinib]
Method in brief: as §1

[14] = compound: CNc1nc(-c2ccc3c(N)n[nH]c3c2)cc(N2C[C@@H](C(=O)NC3CCCCC3)CC[C@H]2C)n1
Method in brief: as §1

[15] = compound: COC(=O)N[C@@H](C)CNc1nccc(-c2cn(C(C)C)nc2-c2cc(Cl)cc(NS(C)(=O)=O)c2F)n1 [encorafenib]
Method in brief: as §1

[16] = compound: COC(=O)[C@H](CCSC)NC(=O)C1=C(C=C(C=C1)NC[C@H](CS)N)C2=CC=CC=C2
Method in brief: as §1

[17] = compound: COc1cc2nc(-c3cc(F)ccc3O)nc(N[C@@H]3CNC[C@H]3C(C)(C)O)c2cc1OC
Method in brief: as §1

[18] = compound: CCN(CCCOc1ccc2c(Nc3cc(CC(=O)Nc4cccc(F)c4)[nH]n3)ncnc2c1)CCOP(=O)(O)O [barasertib]
Method in brief: as §1

[19] = compound: COc1cc(Nc2ncc3c(n2)-c2ccc(Cl)cc2C(c2c(F)cccc2OC)=NC3)ccc1C(=O)O [alisertib]
Method in brief: as §1

[20] = compound: COc1cc2ncnc(Nc3ccc(F)c(Cl)c3)c2cc1OCCCN1CCOCC1 [gefitinib]
Method in brief: as §1

Measured: log2 fold change

ULK1 (UniProt O75385)
inactive: [1] -0.033 | [2] 0.137 | [3] -0.099 | [4] 0.033 | [5] 0.041 | [6] 0.06 | [7] 0.099 | [8] 0.058 | [9] -0.284 | [10] -0.086 | [11] -0.089 | [12] 0.021 | [13] -0.024 | [14] -0.125 | [15] 0.039 | [16] 0.066 | [17] -0.215

UTP11 (UniProt Q9Y3A2)
inactive: [1] -0.048 | [2] -0.015 | [18] -0.144 | [3] 0.106 | [4] -0.023 | [6] -0.15 | [7] 0.094 | [8] -0.074 | [9] 0.01 | [10] -0.08 | [13] -0.042 | [14] 0.043 | [15] -0.159 | [16] -0.234 | [19] 0.06 | [17] -0.049 | [20] 0.049

VDAC3 (UniProt Q9Y277)
inactive: [1] 0.014 | [2] 0.005 | [18] 0.006 | [3] 0.061 | [4] 0.053 | [5] -0.02 | [6] -0.078 | [7] 0.024 | [8] 0.001 | [9] -0.012 | [10] -0.018 | [11] 0.048 | [12] 0.04 | [13] -0.022 | [14] 0.05 | [15] -0.018 | [16] -0.011 | [19] 0.001 | [17] -0.005 | [20] -0.005

USP6NL isoform 2 (UniProt Q92738)
inactive: [1] 0.213 | [2] -0.02 | [3] -0.03 | [4] 0.043 | [6] 0.055 | [7] -0.082 | [9] 0.094 | [10] -0.001 | [13] 0.165 | [15] 0.014 | [16] 0.078 | [19] -0.022 | [17] -0.027 | [20] -0.104

UGCG (UniProt Q16739)
inactive: [1] -0.027 | [18] 0.269 | [5] -0.131 | [8] -0.027 | [9] 0.025 | [11] 0.081 | [12] 0.047 | [13] -0.158 | [14] -0.161 | [19] 0.051 | [20] 0.122

USP34 (UniProt Q70CQ2)
inactive: [1] 0.006 | [2] 0.039 | [18] 0.048 | [3] -0.054 | [4] -0.052 | [5] 0.014 | [6] 0.027 | [7] -0.079 | [8] 0.026 | [9] -0.008 | [10] 0.035 | [11] -0.045 | [12] 0.009 | [13] 0.006 | [14] -0.014 | [15] 0.033 | [16] 0.09 | [19] 0 | [17] 0.017 | [20] 0.013

VDAC2 (UniProt Q5JSD1)
inactive: [1] 0.047 | [2] -0.005 | [18] -0.066 | [3] 0.113 | [4] -0.023 | [5] -0.132 | [6] 0.059 | [7] -0.03 | [8] -0.012 | [9] 0.018 | [10] 0.003 | [11] -0.01 | [12] 0.029 | [13] -0.013 | [14] 0.018 | [15] 0.002 | [16] -0.065 | [19] -0.06 | [17] 0.006 | [20] -0.14

UHRF1 isoform 2 (UniProt Q96T88)
inactive: [1] 0.06 | [2] 0.031 | [18] 0.149 | [3] 0.002 | [4] -0.012 | [5] -0.026 | [6] -0.022 | [7] -0.022 | [8] 0.024 | [9] 0 | [10] 0.01 | [11] -0.152 | [12] -0.019 | [13] -0.018 | [14] -0.01 | [15] -0.012 | [16] 0.039 | [19] -0.001 | [17] -0.024 | [20] 0.011

USP36 (UniProt Q9P275)
inactive: [1] 0.255 | [2] 0 | [3] 0.015 | [4] -0.097 | [5] -0.041 | [6] 0.036 | [7] -0.125 | [9] 0.007 | [10] 0.069 | [11] -0.065 | [13] -0.245 | [15] -0.028 | [16] 0.023 | [19] 0.046 | [17] 0.112 | [20] 0.212

USB1 (UniProt Q9BQ65)
inactive: [1] 0.015 | [2] 0.166 | [3] 0.05 | [4] -0.062 | [5] -0.022 | [6] -0.261 | [7] 0.065 | [8] 0.038 | [9] 0.109 | [10] 0.02 | [11] -0.115 | [12] 0.079 | [13] -0.021 | [14] -0.064 | [15] 0.041 | [16] 0.301 | [19] -0.095 | [17] 0 | [20] -0.014

UNC13A (UniProt Q9UPW8)
active: [6] -1.79
inactive: [7] 0.531 | [10] -0.643 | [12] -0.11 | [19] -0.067 | [20] -0.076

VCX3B (UniProt Q9H321)
inactive: [2] 0.003 | [18] 0.009 | [3] -0.01 | [4] 0.008 | [5] -0.099 | [6] 0.009 | [7] -0.022 | [8] 0.033 | [9] -0.069 | [10] -0.038 | [11] 0.015 | [12] -0.037 | [14] -0.009 | [15] 0.034 | [16] 0.126 | [19] -0.059 | [17] 0 | [20] -0.057

USP40 isoform 3 (UniProt Q9NVE5)
inactive: [5] -0.151 | [8] 0.053 | [9] -0.035 | [11] 0.009 | [12] 0.016 | [14] -0.055 | [19] -0.07 | [20] -0.026

URI1 isoform 4 (UniProt O94763)
inactive: [2] 0.047 | [18] -0.1 | [3] 0.072 | [4] 0.014 | [5] -0.062 | [6] -0.092 | [7] 0.079 | [8] -0.029 | [9] 0.022 | [10] 0.051 | [11] -0.008 | [12] 0.025 | [14] 0.07 | [15] 0.03 | [16] 0.156 | [19] -0.071 | [17] -0.026 | [20] 0.099

VCPKMT (UniProt Q9H867)
inactive: [18] 0.237 | [9] 0.485 | [12] 0.09

URGCP (UniProt Q8TCY9)
inactive: [1] 0.191 | [18] -0.023 | [5] -0.069 | [8] 0 | [11] 0.168 | [13] -0.19 | [14] -0.005 | [19] 0.003 | [20] 0.006

UNG (UniProt P13051)
inactive: [18] 0.097 | [3] -0.107 | [5] 0.177 | [6] 0.034 | [7] -0.05 | [8] 0.051 | [10] 0.025 | [11] -0.1 | [12] -0.064 | [14] -0.193 | [15] -0.046 | [16] -0.114

UTRN isoform 2 (UniProt P46939)
inactive: [18] -0.019 | [3] -0.318 | [6] 0.148 | [7] -0.003 | [10] -0.084 | [12] -0.166 | [15] -0.012 | [16] -0.037

USP5 (UniProt F5H571)
inactive: [2] -0.067 | [18] 0.123 | [4] -0.12 | [19] -0.282 | [17] 0.058 | [20] -0.005

USP54 (UniProt Q70EL1)
inactive: [9] 0.041

UCP2 (UniProt P55851)
inactive: [1] 0.09 | [5] -0.024 | [9] -0.001 | [11] 0.182 | [13] 0.096 | [19] 0.033 | [20] 0.045

USP30 (UniProt Q70CQ3)
inactive: [5] -0.108 | [6] -0.077 | [7] -0.154 | [8] -0.135 | [9] 0.006 | [10] 0.017 | [11] -0.052 | [12] 0.124 | [14] 0.277

6 neighbouring records out of the list so far, for reference:
URI1 isoform 4 (UniProt O94763)
inactive: [2] 0.047 | [18] -0.1 | [3] 0.072 | [4] 0.014 | [5] -0.062 | [6] -0.092 | [7] 0.079 | [8] -0.029 | [9] 0.022 | [10] 0.051 | [11] -0.008 | [12] 0.025 | [14] 0.07 | [15] 0.03 | [16] 0.156 | [19] -0.071 | [17] -0.026 | [20] 0.099

VCPKMT (UniProt Q9H867)
inactive: [18] 0.237 | [9] 0.485 | [12] 0.09

URGCP (UniProt Q8TCY9)
inactive: [1] 0.191 | [18] -0.023 | [5] -0.069 | [8] 0 | [11] 0.168 | [13] -0.19 | [14] -0.005 | [19] 0.003 | [20] 0.006

UNG (UniProt P13051)
inactive: [18] 0.097 | [3] -0.107 | [5] 0.177 | [6] 0.034 | [7] -0.05 | [8] 0.051 | [10] 0.025 | [11] -0.1 | [12] -0.064 | [14] -0.193 | [15] -0.046 | [16] -0.114

UTRN isoform 2 (UniProt P46939)
inactive: [18] -0.019 | [3] -0.318 | [6] 0.148 | [7] -0.003 | [10] -0.084 | [12] -0.166 | [15] -0.012 | [16] -0.037

USP5 (UniProt F5H571)
inactive: [2] -0.067 | [18] 0.123 | [4] -0.12 | [19] -0.282 | [17] 0.058 | [20] -0.005

— the supplement of paper PMC10849652
